Assay [1] has as its target T1, Helicobacter pylori adhesin A, HpaA_(26-233) (H. pylori 26695 strain), P55969.
T1 chain: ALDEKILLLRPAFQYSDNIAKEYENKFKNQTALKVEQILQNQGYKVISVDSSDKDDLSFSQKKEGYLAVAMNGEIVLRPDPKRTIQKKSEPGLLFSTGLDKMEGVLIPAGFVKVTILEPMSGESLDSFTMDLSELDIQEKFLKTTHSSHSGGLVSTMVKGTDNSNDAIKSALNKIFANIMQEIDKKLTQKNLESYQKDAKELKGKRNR
As to the kind of experiment: SEC-MALS; 25°C; Acquity UPLC Protein BEH SEC 200Å column; phosphate buffer (137 mM NaCl, 2.7 mM KCl, 8 mM Na2HPO4, 2 mM KH2PO4, pH 7.5); both purified. The note with it: remark: other sources report otherwise. (In general: In gel filtration, larger molecules generally elute earlier.)

The target in assay [2] is T1, Helicobacter pylori adhesin A, …. The assay can be described thus: crystal structure; sitting drop, 20°C, 0.1 M sodium acetate pH 4.5, 23% PEG 3350, 6% glycerol; space group P2_(1), four HpaA molecules in the asymmetric unit; 2.9 Å; both purified. The note with it: remark: other sources report otherwise.

This note sets out measurements from PMC10936181.

Results are given in words; binding and its absence hold for the method and conditions named.

B1: Helicobacter pylori adhesin A, HpaA_(26-233), P55969 53-260 (domain or fragment)
chain: ALDEKILLLRPAFQYSDNIAKEYENKFKNQTALKVEQILQNQGYKVISVDSSDKDDLSFSQKKEGYLAVAMNGEIVLRPDPKRTIQKKSEPGLLFSTGLDKMEGVLIPAGFVKVTILEPMSGESLDSFTMDLSELDIQEKFLKTTHSSHSGGLVSTMVKGTDNSNDAIKSALNKIFANIMQEIDKKLTQKNLESYQKDAKELKGKRNR
Take B1: the binding result in assay [1] and in assay [2] was “no binding” in each case.
